For 2 molecules, binding results are on record in paper PMC7545202.

The chains behind the UniProt entries cited, without tags or fusion partners.
UniProt Q5NCY0: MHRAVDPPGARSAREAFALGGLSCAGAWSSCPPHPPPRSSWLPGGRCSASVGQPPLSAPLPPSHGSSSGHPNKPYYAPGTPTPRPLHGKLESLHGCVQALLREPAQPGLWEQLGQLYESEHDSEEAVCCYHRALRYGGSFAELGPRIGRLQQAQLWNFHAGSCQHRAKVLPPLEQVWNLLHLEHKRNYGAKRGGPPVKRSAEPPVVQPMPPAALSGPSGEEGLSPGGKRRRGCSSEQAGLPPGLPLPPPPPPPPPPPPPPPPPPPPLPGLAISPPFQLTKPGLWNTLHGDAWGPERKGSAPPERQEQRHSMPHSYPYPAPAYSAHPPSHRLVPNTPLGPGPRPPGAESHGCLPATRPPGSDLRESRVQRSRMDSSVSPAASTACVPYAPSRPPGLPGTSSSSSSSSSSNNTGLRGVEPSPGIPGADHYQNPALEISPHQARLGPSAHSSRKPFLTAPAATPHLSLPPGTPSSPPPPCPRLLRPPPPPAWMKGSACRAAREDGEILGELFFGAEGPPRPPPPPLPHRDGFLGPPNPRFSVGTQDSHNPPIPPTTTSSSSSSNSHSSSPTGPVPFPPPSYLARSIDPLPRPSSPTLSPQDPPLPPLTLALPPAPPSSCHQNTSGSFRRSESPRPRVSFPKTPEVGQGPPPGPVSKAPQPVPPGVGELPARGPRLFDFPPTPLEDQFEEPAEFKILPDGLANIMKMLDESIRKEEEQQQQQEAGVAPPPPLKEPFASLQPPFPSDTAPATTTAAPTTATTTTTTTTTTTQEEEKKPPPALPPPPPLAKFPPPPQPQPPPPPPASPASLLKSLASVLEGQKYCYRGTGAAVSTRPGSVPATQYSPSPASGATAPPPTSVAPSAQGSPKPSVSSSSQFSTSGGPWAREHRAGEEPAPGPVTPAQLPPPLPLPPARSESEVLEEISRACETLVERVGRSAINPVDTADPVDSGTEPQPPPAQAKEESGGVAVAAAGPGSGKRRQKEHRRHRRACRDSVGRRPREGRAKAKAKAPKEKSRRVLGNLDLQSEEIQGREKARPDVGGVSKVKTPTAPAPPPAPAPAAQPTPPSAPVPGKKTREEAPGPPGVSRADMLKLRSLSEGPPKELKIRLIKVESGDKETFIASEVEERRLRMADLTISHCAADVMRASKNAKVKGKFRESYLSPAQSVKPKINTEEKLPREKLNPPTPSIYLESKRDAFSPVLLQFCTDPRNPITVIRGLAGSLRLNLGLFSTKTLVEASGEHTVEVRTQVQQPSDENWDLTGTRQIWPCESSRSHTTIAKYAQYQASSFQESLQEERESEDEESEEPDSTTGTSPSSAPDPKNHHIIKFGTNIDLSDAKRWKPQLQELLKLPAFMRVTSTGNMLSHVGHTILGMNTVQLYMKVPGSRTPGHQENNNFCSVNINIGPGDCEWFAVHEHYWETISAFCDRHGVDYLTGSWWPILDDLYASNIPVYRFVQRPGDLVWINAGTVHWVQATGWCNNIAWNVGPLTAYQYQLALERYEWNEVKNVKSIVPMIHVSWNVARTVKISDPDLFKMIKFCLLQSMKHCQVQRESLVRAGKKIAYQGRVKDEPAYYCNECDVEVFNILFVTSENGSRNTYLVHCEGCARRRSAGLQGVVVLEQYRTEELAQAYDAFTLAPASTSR
UniProt Q6KCD5: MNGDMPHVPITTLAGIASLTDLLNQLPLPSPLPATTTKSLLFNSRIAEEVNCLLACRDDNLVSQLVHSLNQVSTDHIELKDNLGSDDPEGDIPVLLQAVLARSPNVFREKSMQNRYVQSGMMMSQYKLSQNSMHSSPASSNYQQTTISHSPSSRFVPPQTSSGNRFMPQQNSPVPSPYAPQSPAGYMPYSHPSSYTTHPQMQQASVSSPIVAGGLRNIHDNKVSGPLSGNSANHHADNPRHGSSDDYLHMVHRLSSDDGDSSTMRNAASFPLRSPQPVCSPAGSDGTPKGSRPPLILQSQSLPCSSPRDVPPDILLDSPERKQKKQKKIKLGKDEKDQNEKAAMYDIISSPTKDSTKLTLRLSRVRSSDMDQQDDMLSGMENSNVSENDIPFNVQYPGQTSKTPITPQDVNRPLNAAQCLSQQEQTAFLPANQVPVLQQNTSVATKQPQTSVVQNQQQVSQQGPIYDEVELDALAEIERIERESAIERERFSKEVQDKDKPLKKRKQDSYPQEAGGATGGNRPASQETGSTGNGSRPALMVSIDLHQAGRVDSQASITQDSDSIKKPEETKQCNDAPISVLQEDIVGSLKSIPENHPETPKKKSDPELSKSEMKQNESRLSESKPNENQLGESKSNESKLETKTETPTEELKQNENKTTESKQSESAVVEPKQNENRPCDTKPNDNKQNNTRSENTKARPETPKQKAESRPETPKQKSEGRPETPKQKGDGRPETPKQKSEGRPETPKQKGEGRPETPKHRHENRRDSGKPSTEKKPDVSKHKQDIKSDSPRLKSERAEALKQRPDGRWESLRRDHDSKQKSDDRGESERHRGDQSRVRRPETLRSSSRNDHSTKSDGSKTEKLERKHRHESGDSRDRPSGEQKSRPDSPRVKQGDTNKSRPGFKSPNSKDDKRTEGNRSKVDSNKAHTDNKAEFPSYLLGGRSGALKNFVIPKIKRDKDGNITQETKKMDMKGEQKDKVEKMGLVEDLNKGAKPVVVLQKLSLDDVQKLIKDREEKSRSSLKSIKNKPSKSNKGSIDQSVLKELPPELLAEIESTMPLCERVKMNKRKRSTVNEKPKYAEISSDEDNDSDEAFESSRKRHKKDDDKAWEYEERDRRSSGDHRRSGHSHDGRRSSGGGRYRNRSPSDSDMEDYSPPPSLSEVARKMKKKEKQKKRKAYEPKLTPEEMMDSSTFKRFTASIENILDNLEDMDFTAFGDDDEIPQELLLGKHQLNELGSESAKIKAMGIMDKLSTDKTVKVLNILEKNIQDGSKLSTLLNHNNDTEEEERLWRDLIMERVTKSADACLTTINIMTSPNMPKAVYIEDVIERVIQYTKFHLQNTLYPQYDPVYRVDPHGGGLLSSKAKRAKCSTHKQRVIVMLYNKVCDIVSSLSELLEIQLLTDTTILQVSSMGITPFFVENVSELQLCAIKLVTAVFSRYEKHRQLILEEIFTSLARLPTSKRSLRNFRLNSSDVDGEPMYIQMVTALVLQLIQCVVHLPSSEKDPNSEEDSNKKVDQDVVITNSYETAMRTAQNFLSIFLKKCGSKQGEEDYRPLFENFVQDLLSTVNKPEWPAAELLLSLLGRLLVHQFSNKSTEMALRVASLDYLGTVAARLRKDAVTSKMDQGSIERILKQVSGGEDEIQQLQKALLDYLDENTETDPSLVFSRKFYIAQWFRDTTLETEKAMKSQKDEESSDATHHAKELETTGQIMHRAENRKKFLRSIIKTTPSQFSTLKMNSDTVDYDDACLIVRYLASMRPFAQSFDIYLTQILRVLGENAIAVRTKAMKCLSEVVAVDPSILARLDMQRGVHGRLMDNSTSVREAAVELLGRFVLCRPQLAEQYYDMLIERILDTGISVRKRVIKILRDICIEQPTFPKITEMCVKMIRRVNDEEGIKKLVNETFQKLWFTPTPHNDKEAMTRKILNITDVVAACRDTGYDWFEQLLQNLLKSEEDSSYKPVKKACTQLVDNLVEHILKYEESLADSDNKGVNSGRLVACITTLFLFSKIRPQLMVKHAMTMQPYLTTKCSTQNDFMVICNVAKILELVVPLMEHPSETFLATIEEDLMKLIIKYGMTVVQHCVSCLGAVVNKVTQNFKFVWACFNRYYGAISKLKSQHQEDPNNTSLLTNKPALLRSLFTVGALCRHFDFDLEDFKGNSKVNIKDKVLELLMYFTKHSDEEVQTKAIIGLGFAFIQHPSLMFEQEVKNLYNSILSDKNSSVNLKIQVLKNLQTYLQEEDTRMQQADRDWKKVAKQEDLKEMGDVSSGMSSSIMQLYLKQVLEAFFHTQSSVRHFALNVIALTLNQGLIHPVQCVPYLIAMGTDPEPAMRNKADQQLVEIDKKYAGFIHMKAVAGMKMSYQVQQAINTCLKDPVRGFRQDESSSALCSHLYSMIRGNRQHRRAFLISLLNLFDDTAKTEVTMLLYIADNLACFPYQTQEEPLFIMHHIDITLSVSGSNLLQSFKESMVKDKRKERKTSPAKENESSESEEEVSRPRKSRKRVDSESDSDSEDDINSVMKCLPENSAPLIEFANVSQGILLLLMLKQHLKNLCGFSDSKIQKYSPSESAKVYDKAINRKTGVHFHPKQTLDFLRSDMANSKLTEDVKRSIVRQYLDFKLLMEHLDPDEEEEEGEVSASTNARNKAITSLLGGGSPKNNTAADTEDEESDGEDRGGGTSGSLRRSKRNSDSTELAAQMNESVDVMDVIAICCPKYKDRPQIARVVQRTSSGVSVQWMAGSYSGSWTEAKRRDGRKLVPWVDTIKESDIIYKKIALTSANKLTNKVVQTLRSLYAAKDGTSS

These are yes or no findings as the source states them, for the method shown. Binding seen in cells or lysates may run through a third protein. Here binding means that the protein was enriched with, or labelled near, the bait; the list need not be complete.

The assay deals with 3×FLAG-tagged JMJD3 (mouse) (UniProt Q5NCY0). The assay can be described thus: affinity purification with mass spectrometry; anti-FLAG M2 magnetic beads with nuclear extracts from OSKM-reprogrammed P2 MEFs with 3×FLAG-tagged JMJD3 or UTX; eluted with 3×FLAG peptide; eluates analysed by MS.

As to NIPBL (from UniProt Q6KCD5 1-2798), the binding entry is reported as “binds”.

B1: H3K27me2/1 demethylase KDM7A (enzyme, UniProt Q3UWM4 1-940)
chain: MAGAAAAVAAGAAAGAAAAAGSVSAPGRASAPPPPPPVYCVCRQPYDVNRFMIECDVCKDWFHGSCVGVEEHHAVDIDLYHCPDCAALHGSSLMKKRRNWHRHDYTEVDDGSKPVQAGTRAFVKELRSRVFPSADEIIVKMHGSQLTQRYLEKHGFDVPIMVPKLDDLGLRLPSPAFSVMDVERYVGGDKVIDVIDVARQADSKMTLHNYVKYFMNPDRPKVLNVISLEFSDTKMSELVEVPDIARKLSWVENYWPDDSVFPKPFVQKYCLMGVQDSYTDFHIDFGGTSVWYHVLWGEKIFYLIKPTNENLALYESWSSSVTQSEVFFGDKVDKCYKCVVKQGHTLFVPTGWIHAVLTSQDCMAFGGNFLHNLNIGMQLRCYEMEKRLKTPDLFKFPFFEAICWFVAKSLLETLKELKEDGFQPQSYLVQGVKALHTALKLWMKKELVSEHAFEIPDNVRPGHLIKELSKVIRAIEEENGKPVKSQGIPSVCPVSRPSNEASPPYHSRRKMRKLRDHNVRTPSNLDILELHTREVLKRLEMCPWEEDLLSSKLNGKFNKHLQPSSTVPEWRAKDNDLRLLLTNGRIIKDERQLFADRSLYTADSENEEDKKPTQNANMKTEQSSGREEAESQGSPKPLNRIFTSVRSELRSRPSEYSDGSDSEDSGPDCTALKINFATEDSESSGDEKKHEITSHFKEESDIVRNLLQKSQKPSRQEIPVKRECPTSTSTEEEAIQGMLSMAGLHYSSCLQRQIQSTDCSGEKNSLQDPSSCHGSNPEFRQLYRCNKPVEFGYHAKTEDQDLMTSSWNKQFDRTSRFNAQDLSRSQKHIKKESSSEINQKAQSRHCVDSNSSSIQNGKYTLNPSLVSCQISNGSLSPERPIGETSFSMPLHPTKRPASNPPPISNQATKGKRPKKGMATAKQRLGKILKLNRNGHARFFV
On to B1, for which the binding result is “binds”.
